PubChem BioAssay AID1259254 | NCATS, 2017
Aim: 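Genome-wide screen for genes that prevent DNA re-replication in cancer cells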 (primary screen). Cell system: human HCT116 colorectal cancer cells. Reagents: single siRNA against human genes. Duration: 3 days. Read-out: 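Nuclei stained with Hoechst and imaged; cell-cycle phase assigned by DNA content; G2 share scaled per plate, non-targeting siRNA 0%, GMNN siRNA 100%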. Scale: G2 robust z-score and G2 cells, % of GMNN control: higher = more G2 cells, more excess DNA replication. Call rule: 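Active siRNAs have a G2 robust z of 5 or more median absolute deviations over the median, which in these data means about 38% or higher of GMNN control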.
The whole screen tested about 59,000 reagents; below is a part drawn at random. About 1,550 of all reagents (2.6%) count as active. 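G2 share is only a proxy for re-replication; each gene was hit by three separate siRNAs, and active genes were retested.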 Unmarked entries are inactive. The numbers tell different reagents against one gene apart. Further read-outs or replicates are left out here. Not stated in the record: the amount of reagent.

{"gene symbol":"GRAPL (GRB2 related adaptor protein like)","reagent":1,"G2 robust z-score":3.68,"G2 cells, % of GMNN control":28.9}
{"gene symbol":"GRAPL (GRB2 related adaptor protein like)","reagent":2,"G2 robust z-score":-0.236,"G2 cells, % of GMNN control":1.31}
{"gene symbol":"GRAPL (GRB2 related adaptor protein like)","reagent":3,"G2 robust z-score":-0.923,"G2 cells, % of GMNN control":-3.53}
{"gene symbol":"TREM2 (triggering receptor expressed on myeloid cells 2)","reagent":1,"G2 robust z-score":-0.91,"G2 cells, % of GMNN control":-3.44}
{"gene symbol":"TREM2 (triggering receptor expressed on myeloid cells 2)","reagent":2,"G2 robust z-score":-0.681,"G2 cells, % of GMNN control":-1.82}
{"gene symbol":"TREM2 (triggering receptor expressed on myeloid cells 2)","reagent":3,"G2 robust z-score":-1.06,"G2 cells, % of GMNN control":-4.51}
{"gene symbol":"TSNAXIP1 (translin associated factor X interacting protein 1)","reagent":1,"G2 robust z-score":-0.956,"G2 cells, % of GMNN control":-3.76}
{"gene symbol":"TSNAXIP1 (translin associated factor X interacting protein 1)","reagent":2,"G2 robust z-score":-1.03,"G2 cells, % of GMNN control":-4.28}
{"gene symbol":"TSNAXIP1 (translin associated factor X interacting protein 1)","reagent":3,"G2 robust z-score":-0.391,"G2 cells, % of GMNN control":0.218}
{"gene symbol":"CEP57 (centrosomal protein 57)","reagent":1,"G2 robust z-score":-0.191,"G2 cells, % of GMNN control":1.62}
{"gene symbol":"CEP57 (centrosomal protein 57)","reagent":2,"G2 robust z-score":0.984,"G2 cells, % of GMNN control":9.89}
{"gene symbol":"CEP57 (centrosomal protein 57)","reagent":3,"G2 robust z-score":0.182,"G2 cells, % of GMNN control":4.25}
{"gene symbol":"ATG5 (autophagy related 5)","reagent":1,"G2 robust z-score":0.0125,"G2 cells, % of GMNN control":3.06}
{"gene symbol":"ATG5 (autophagy related 5)","reagent":2,"G2 robust z-score":-0.964,"G2 cells, % of GMNN control":-3.81}
{"gene symbol":"ATG5 (autophagy related 5)","reagent":3,"G2 robust z-score":-0.312,"G2 cells, % of GMNN control":0.769}
{"gene symbol":"ARL4A (ARF like GTPase 4A)","reagent":1,"G2 robust z-score":2.38,"G2 cells, % of GMNN control":19.7}
{"gene symbol":"ARL4A (ARF like GTPase 4A)","reagent":2,"G2 robust z-score":-0.515,"G2 cells, % of GMNN control":-0.659}
{"gene symbol":"ARL4A (ARF like GTPase 4A)","reagent":3,"G2 robust z-score":0.777,"G2 cells, % of GMNN control":8.43}
{"gene symbol":"SCG3 (secretogranin III)","reagent":1,"G2 robust z-score":0.239,"G2 cells, % of GMNN control":4.65}
{"gene symbol":"SCG3 (secretogranin III)","reagent":2,"G2 robust z-score":-0.176,"G2 cells, % of GMNN control":1.73}
{"gene symbol":"SCG3 (secretogranin III)","reagent":3,"G2 robust z-score":0.566,"G2 cells, % of GMNN control":6.95}
{"gene symbol":"OR4K14 (olfactory receptor family 4 subfamily K member 14)","reagent":1,"G2 robust z-score":-0.857,"G2 cells, % of GMNN control":-3.06}
{"gene symbol":"OR4K14 (olfactory receptor family 4 subfamily K member 14)","reagent":2,"G2 robust z-score":-0.399,"G2 cells, % of GMNN control":0.162}
{"gene symbol":"OR4K14 (olfactory receptor family 4 subfamily K member 14)","reagent":3,"G2 robust z-score":0.844,"G2 cells, % of GMNN control":8.91}

4 consecutive reagents already listed, for reference:
{"gene symbol":"ARL4A (ARF like GTPase 4A)","reagent":2,"G2 robust z-score":-0.515,"G2 cells, % of GMNN control":-0.659}
{"gene symbol":"ARL4A (ARF like GTPase 4A)","reagent":3,"G2 robust z-score":0.777,"G2 cells, % of GMNN control":8.43}
{"gene symbol":"SCG3 (secretogranin III)","reagent":1,"G2 robust z-score":0.239,"G2 cells, % of GMNN control":4.65}
{"gene symbol":"SCG3 (secretogranin III)","reagent":2,"G2 robust z-score":-0.176,"G2 cells, % of GMNN control":1.73}
